Laboratory results as given in PMC6899681.
These are yes or no findings as the source states them, for the method shown.

The chains behind the UniProt entries cited, without tags or fusion partners. Where a name states a change or a piece, a line headed by the entry shows the natural chain unless it says otherwise.
UniProt P03952: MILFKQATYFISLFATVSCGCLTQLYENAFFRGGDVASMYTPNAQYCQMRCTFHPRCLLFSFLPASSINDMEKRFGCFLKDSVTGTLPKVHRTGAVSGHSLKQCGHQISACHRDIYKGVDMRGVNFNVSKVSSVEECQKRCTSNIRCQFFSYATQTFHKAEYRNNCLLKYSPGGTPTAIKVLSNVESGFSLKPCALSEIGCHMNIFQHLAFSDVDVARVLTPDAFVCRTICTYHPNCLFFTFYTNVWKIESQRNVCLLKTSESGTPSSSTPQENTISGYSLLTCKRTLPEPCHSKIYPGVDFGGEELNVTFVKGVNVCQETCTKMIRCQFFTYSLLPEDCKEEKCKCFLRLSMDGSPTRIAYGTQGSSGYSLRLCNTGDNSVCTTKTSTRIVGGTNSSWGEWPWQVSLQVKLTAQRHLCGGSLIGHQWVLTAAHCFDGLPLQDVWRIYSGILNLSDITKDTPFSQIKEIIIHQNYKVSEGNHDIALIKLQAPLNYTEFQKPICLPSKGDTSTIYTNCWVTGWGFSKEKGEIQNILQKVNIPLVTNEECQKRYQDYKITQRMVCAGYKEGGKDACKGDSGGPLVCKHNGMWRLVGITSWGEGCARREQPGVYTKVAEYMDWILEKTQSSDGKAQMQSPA

Biological target: Recombinant full-length plasma kallikrein, optimized variant with the active site mutation S559A, activated by β-FXIIa (human) (UniProt P03952)
Test: crystal structure; PKa with benzamidine, 1.3 Å, space group P2(1)2(1)2, crystals from the Morpheus screen; both purified

binding: no binding
Substance: Recombinant full-length plasma kallikrein, optimized variant with the active site mutation S559A, activated by β-FXIIa (from UniProt P03952 20-390; P03952 391-638) (enzyme)
